Tested on: antisera used in the assay
Experiment: Cross reaction in the acyclovir radioimmunoassay

Compound | cross reaction with the antisera used in the radioimmunoassay
Nc1ncc2ncn(COCCO)c2n1 [6-deoxyacyclovir, 2-Amino-9-(2-hydroxyethoxymethyl)purine] | neither aminoacyclovir nor 6-deoxyacyclovir cross reacted
Nc1nc(N)c2ncn(COCCO)c2n1 [aminoacyclovir, 2,6-diamino-9-(2-hydroxyethoxymethyl)purine, reference compound] | neither aminoacyclovir nor 6-deoxyacyclovir cross reacted
